From article PMC6925144, “A prospective compound screening contest identified broader inhibitors for Sirtuin 1” (Scientific Reports, 2019)
In all, about 3,200 compounds were measured (“TSA(with NAD+) / Primary screening (TSA) / delta Tm (K)”: median about -0.04, highest 2% from about 0.37 on). Some of the results follow.

Sequences of proteins named here, by UniProt entry; tags and fusion partners are left off. Residues count along the entry.
UniProt Q96EB6, 2-747 limits assumed: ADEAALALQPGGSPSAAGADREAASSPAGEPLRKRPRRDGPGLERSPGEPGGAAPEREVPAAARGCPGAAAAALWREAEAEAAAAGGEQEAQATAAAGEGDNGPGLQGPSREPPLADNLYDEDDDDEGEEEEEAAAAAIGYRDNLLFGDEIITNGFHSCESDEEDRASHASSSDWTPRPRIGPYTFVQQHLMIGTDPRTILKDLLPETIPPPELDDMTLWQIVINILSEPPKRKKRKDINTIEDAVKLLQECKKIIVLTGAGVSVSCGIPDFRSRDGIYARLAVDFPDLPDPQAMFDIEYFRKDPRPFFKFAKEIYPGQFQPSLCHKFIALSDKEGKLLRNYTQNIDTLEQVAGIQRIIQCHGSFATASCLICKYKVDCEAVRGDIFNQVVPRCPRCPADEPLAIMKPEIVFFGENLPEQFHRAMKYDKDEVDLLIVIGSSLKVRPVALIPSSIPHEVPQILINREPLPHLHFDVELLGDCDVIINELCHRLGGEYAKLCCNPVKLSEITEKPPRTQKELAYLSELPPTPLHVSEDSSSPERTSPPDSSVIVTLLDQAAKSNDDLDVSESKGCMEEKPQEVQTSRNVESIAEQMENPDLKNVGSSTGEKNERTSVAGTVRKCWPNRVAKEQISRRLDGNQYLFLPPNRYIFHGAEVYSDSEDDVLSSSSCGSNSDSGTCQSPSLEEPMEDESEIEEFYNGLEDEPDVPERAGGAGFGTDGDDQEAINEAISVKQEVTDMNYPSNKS

These compounds were tested against NAD-dependent deacetylase Sirtuin 1 (human, UniProt Q96EB6) (assay: primary screen, delta tm). Details: 10 µM.
Parameters: single well (n = 1, as 'the same TSA')

| Compound | TSA(with NAD+) / Primary screening (TSA) / delta Tm (K) |
| --- | --- |
| O=C(NC1CC1)C1CCCN1C(=O)c1n[nH]c2ccccc12 (stereo not shown) | -0.06 |
| CC(=O)N1CCCc2cc(S(=O)(=O)Nc3cccc4ccccc34)ccc21 | -0.11 |
| Cc1ccc(C)c(NC(=O)COc2ccc3c4c(c(=O)oc3c2)CCC4)c1 | -0.14 |
| Cc1cn2c3c(=O)n(CCC(C)C)c(=O)n(C)c3nc2n1CCC(C)C | -0.02 |
| O=C(CN1CCN(C(=O)CCc2c[nH]c3ccccc23)CC1)Nc1ccccc1 | -0.09 |
| NC(=O)C1CCCN(C(=O)c2cc3c(Cl)c(Cl)ccc3[nH]2)C1 (stereo not shown) | -0.08 |
| NCC(Cc1ccccn1)C(=O)O (stereo not shown) | -0.11 |
| Cc1ccc(NC(=O)NCCc2cccc(O)c2)cc1NC(=O)NCCc1cccc(O)c1 | 0.32 |
| Cc1ccc(N(C)S(=O)(=O)c2cccc(C(=O)Nc3ccccc3Cl)c2)cc1 | -0.13 |
| NC(=O)C1CCN(c2ncnc3sc4c(c23)CCCCC4)CC1 | 0.26 |
| CCC(CNC(=O)NCc1noc(C)n1)N1CCc2ccccc2C1 (stereo not shown) | 0.02 |
| CC1CN(C(=O)CC23CC4CC(CC(O)(C4)C2)C3)CC(c2ccccc2)O1 (stereo not shown) | -0.06 |
| CNC(=O)CCN(C)S(=O)(=O)c1cccc(Br)c1 | 0.01 |
| Cc1ccccc1NC(=O)CN1CC=C(c2c[nH]c3ccccc23)CC1 | 0.06 |
| Cc1c(F)cc(C(N)=O)cc1NC(=O)c1sc2nc(C3CC3)nc(C)c2c1C | -0.01 |
| COc1cc(CN(C)C(=O)Cn2[nH]c(=O)c3ccccc3c2=O)ccc1OCc1ccccc1 | 0.03 |
| c1ccc(N2CCN(c3cc(C4CC4)nc4ncnn34)CC2)cc1 | -0.01 |
| O=C(c1ccccc1)N1CCN(C(=O)c2cccc3ccccc23)CC1 | -0.02 |
| CCS(=O)CCNC(=O)c1nc2ccccc2c(=O)[nH]1 (stereo not shown) | -0.18 |
| COc1ccc(C23CC4CC(CC(C(=O)NCc5ccc6c(c5)OCO6)(C4)C2)C3)cc1 | -0.04 |
| CCC(N)C(=O)NC (stereo not shown) | -0.18 |
| Cc1nc(-c2cccnc2)nc(NCC(O)c2ccsc2)c1C (stereo not shown) | 0.02 |
| CC1CCN(CCCNC(=O)C2=NN(c3ccc(F)cc3)C(C(N)=O)C2)CC1 (stereo not shown) | -0.12 |

Already shown: 2 of the compounds above.

| Compound | TSA(with NAD+) / Primary screening (TSA) / delta Tm (K) |
| --- | --- |
| Cc1ccc(NC(=O)NCCc2cccc(O)c2)cc1NC(=O)NCCc1cccc(O)c1 | 0.32 |
| Cc1ccc(N(C)S(=O)(=O)c2cccc(C(=O)Nc3ccccc3Cl)c2)cc1 | -0.13 |

Further compounds

| Compound | TSA(with NAD+) / Primary screening (TSA) / delta Tm (K) |
| --- | --- |
| O=C(CCSc1ncccn1)Nc1c(Cl)cccc1Cl | -0.03 |
| COc1ccc(N(C)S(=O)(=O)c2cccc(C(=O)Nc3ccc4ccccc4c3)c2)cc1 | 0.65 |
| NC(=O)c1cc(NC(=O)CN2CC=C(c3ccc(O)cc3)CC2)cc(C(N)=O)c1 | -0.01 |
| CC1OC1P(=O)([O-])[O-] (stereo not shown) | -0.01 |
| COc1ccc(C(=O)C2=C(O)C(=O)N(CCCN3CCOCC3)C2c2ccc(C)cc2)cc1 (stereo not shown) | -0.04 |
| COc1ccccc1C(C)Nc1cc(=O)n2ccccc2n1 (stereo not shown) | -0.13 |
| Cc1ccc(-c2nc(C(=O)NCCc3nnc4ccccn34)cs2)o1 | 0.01 |
| O=C(Nc1cc(S(=O)(=O)N2CCOCC2)ccc1Oc1ccc(F)cc1)C1=COCCO1 | -0.16 |
| O=c1[nH]cnc2c1ncn2[C@H]1CC[C@@H](CO)O1 | -0.06 |
| CC(C)C(O)CCN (stereo not shown) | -0.06 |
| CN(Cc1nc2ccccc2s1)C(=O)CSc1nnc(CC2CCS(=O)(=O)C2)o1 (stereo not shown) | -0.09 |
| CC1CCN(c2ccc(NC(=O)N(C)Cc3cnccn3)cc2)C1 (stereo not shown) | -0.02 |
| O=C(CN1CCN(C(=O)c2ccccc2COc2ccccc2)CC1)Nc1ccccc1Cl | -0.03 |
| NC(=O)C1CCN(C(=O)c2cc3ccc(Br)cc3[nH]2)C1 (stereo not shown) | -0.03 |
| COc1cccc(/C=N/c2cccc(C(N)=O)c2)c1O | -0.13 |
| Cc1ccc(C2C(C(=O)c3cc4ccccc4o3)=C(O)C(=O)N2CCCN2CCOCC2)o1 (stereo not shown) | 0.05 |
| COc1ccc(/C=C2/COc3ccc(Br)cc3C2=O)cc1OC(F)F | 0.02 |
| O=C1/C(=C/c2ccccc2[N+](=O)[O-])Oc2cc(O)ccc21 | -0.06 |
| CCN(CC)C(=O)CN1CCCN(CC(=O)Nc2sccc2C(N)=O)CC1 | 0.01 |
| Cc1sc(NC(=O)C2CCN(c3ncc(C(F)(F)F)cc3Cl)CC2)c(C(N)=O)c1C | 0.22 |
| Cc1cc2cc(NC(=O)Cc3c(C)nc(-c4ccccn4)[nH]c3=O)ccc2[nH]1 | 0.03 |
| C=CCNc1nnc(SCC(O)COC(c2ccccc2)c2ccccc2C)s1 (stereo not shown) | -0.01 |
| Cc1nn(-c2ccc(F)cc2)c(C)c1CNCc1ccccc1 | -0.23 |
